# Source: patent US20250179176A1, “ANTI-TIGIT ANTIBODIES AND USES OF THE SAME” (ARCUS BIOSCIENCES, INC., priority 2022, published 2025)
# Tested on: metastatic (Stage IV) squamous or non-squamous NSCLC
# Assay: Phase 2 study in front-line NSCLC (ARC-7), efficacy
# Type: in vivo, human
# Settings: ITT-13, cutoff Aug. 31, 2022
# Source text: Participants were randomized 1:1:1 across the three study arms and treated until disease progression or loss of clinical benefit. […] Patients in the zimberelimab monotherapy arm with confirmed progression had the option to cross over to the triplet arm. Co-primary endpoints were objective response rate (ORR) and progression-free survival (PFS). Secondary endpoints included safety, duration of response and disease control rates. Additional assessments of response/on-treatment effects may include measures of immune cell activation, immune cell suppression, immune cell proliferation, T cell receptor dynamics, and/or increases in memory and antigen experienced T cells in periphery or tumor microenvironment, as well as molecular response assessment by ctDNA dynamics and/or changes in tumor cell markers or gene expression.
# Further data were obtained from an interim analysis with a data cutoff of Aug. 31, 2022.
substance,measurement,value
"zimberelimab: antagonistic PD-1 antibody, immune checkpoint inhibitor",patients remaining on study treatment,28%
